Assay results: patent US20100062000A1
No constants are given. Whether binding was seen depends on the method and setting. In cells and extracts the contact can be indirect. Some binding calls cover weakened binding; strength is not graded here.

Sequences of proteins named here, by UniProt entry; tags and fusion partners are left off. Residues count along the entry.
UniProt P27361, residues 2-379: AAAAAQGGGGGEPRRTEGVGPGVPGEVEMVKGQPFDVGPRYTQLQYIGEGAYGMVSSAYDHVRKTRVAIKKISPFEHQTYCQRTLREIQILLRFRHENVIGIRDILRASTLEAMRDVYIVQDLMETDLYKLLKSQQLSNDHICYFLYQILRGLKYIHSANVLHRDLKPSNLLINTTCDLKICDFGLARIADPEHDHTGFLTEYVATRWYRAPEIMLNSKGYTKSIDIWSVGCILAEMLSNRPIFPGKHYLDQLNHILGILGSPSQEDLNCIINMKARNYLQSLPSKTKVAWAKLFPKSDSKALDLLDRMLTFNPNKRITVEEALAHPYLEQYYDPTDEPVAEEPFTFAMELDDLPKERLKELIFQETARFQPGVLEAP

Key:
ERK1 (human) [1] = target: ERK1 (human) (UniProt P27361); test: co-immunoprecipitation from cell lysates, western blot
ERK1 (human) [2] = target: ERK1 (human) (UniProt P27361); test: co-immunoprecipitation from cell lysates: IP Rhamm, immunoblot ERK1,2
ERK1 (human) [3] = target: ERK1 (human) (UniProt P27361); test: summary of co-immunoprecipitation and pull-down assays

Measured: binding

B1: Rhamm (Receptor for Hyaluronic Acid Mediated Motility), protein form not specified (receptor, human, UniProt O75330 1-724, looked up)
chain: MSFPKAPLKRFNDPSGCAPSPGAYDVKTLEVLKGPVSFQKSQRFKQQKESKQNLNVDKDTTLPASARKVKSSESKESQKNDKDLKILEKEIRVLLQERGAQDRRIQDLETELEKMEARLNAALREKTSLSANNATLEKQLIELTRTNELLKSKFSENGNQKNLRILSLELMKLRNKRETKMRGMMAKQEGMEMKLQVTQRSLEESQGKIAQLEGKLVSIEKEKIDEKSETEKLLEYIEEISCASDQVEKYKLDIAQLEENLKEKNDEILSLKQSLEENIVILSKQVEDLNVKCQLLEKEKEDHVNRNREHNENLNAEMQNLKQKFILEQQEREKLQQKELQIDSLLQQEKELSSSLHQKLCSFQEEMVKEKNLFEEELKQTLDELDKLQQKEEQAERLVKQLEEEAKSRAEELKLLEEKLKGKEAELEKSSAAHTQATLLLQEKYDSMVQSLEDVTAQFESYKALTASEIEDLKLENSSLQEKAAKAGKNAEDVQHQILATESSNQEYVRMLLDLQTKSALKETEIKEITVSFLQKITDLQNQLKQQEEDFRKQLEDEEGRKAEKENTTAELTEEINKWRLLYEELYNKTKPFQLQLDAFEVEKQALLNEHGAAQEQLNKIRDSYAKLLGHQNLKQKIKHVVKLKDENSQLKSEVSKLRCQLAKKKQSETKLQEELNKVLGIKHFDPSKAFHHESKENFALKTPLKEGNTNCYRAPMECQESWK
binds: all assays above
